Data from paper PMC6631887, “In vitro and in vivo characterization of anti-malarial acylphenoxazine derivatives prepared from basic blue 3” (Malaria Journal, 2019).

Key:
HEK293T cells = test: Cytotoxic assay (Cell Counting Kit-8), HEK293T; assay type: cell-based, human; details: for SI HEK293T / 3D7: SI = mean CC50 (HEK293T)/mean IC50 (3D7); for SI HEK293T / MRA-1239: SI = mean CC50 (HEK293T)/mean IC50 (MRA-1239); for SI HEK293T / MRA-1240: SI = mean CC50 (HEK293T)/mean IC50 (MRA-1240); for SI HEK293T / W2: SI = mean CC50 (HEK293T)/mean IC50 (W2); for SI for HEK293T cells (text, all strains and isolates): SI = mean CC50/mean IC50
Procedure: (§1) HepG2 (JCRB1054) and HEK293T cell lines were obtained from the Japanese Collection of Research Bioresources (JCRB, Osaka, Japan) and Prof. Yoshiharu Matsuura (Osaka University, Osaka, Japan), respectively. The cells were cultured in Dulbecco’s modified Eagle’s medium (DMEM (1.0 g/L glucose) with L-glutamine and sodium pyruvate; Nacalai Tesque, Kyoto, Japan) supplemented with 10% (v/v) fetal bovine serum (FBS; Gibco-BRL, Grand Island, NY, USA) in a humidified incubator with 5% CO2 at 37 °C. For the cytotoxic assay, the cells (5 × 10^3/well) were seeded in a 96-well plate. […] Cell viability was measured using a Cell Counting Kit-8 (Dojindo) according to the manufacturer’s instructions. Briefly, 10 µL CCK-8 reagent was added to each well containing culture medium and incubated for 2 h under standard culture conditions. The absorbance of the sample was measured at 450 nm using a PowerWave HT microplate spectrophotometer (BioTek Instruments, Winooski, VT, USA). The cell viability was expressed as a percentage of the absorbance of the untreated control cells after subtracting the appropriate background intensity. The CC50 (mean ± SEM) was calculated as described in IC50. The SI, which is the ratio between the cytotoxicity and anti-malarial activity, was calculated according to the following equation. SI=mean CC50/mean IC50.

HepG2 cells = test: Cytotoxic assay (Cell Counting Kit-8), HepG2; assay type: cell-based, human; details: for SI HepG2 / MRA-1239: SI = mean CC50 (HepG2)/mean IC50 (MRA-1239); for SI HepG2 / MRA-1240: SI = mean CC50 (HepG2)/mean IC50 (MRA-1240); for SI HepG2 / 3D7: SI = mean CC50 (HepG2)/mean IC50 (3D7); for SI HepG2 / W2: SI = mean CC50 (HepG2)/mean IC50 (W2); for SI for HepG2 cells (text, all strains and isolates): SI = mean CC50/mean IC50
Procedure: as §1

| Compound | SI HEK293T / 3D7 (HEK293T cells) | SI HEK293T / MRA-1239 (HEK293T cells) | SI HEK293T / MRA-1240 (HEK293T cells) | SI HEK293T / W2 (HEK293T cells) | SI HepG2 / MRA-1239 (HepG2 cells) | SI HepG2 / MRA-1240 (HepG2 cells) | SI HepG2 / 3D7 (HepG2 cells) | SI HepG2 / W2 (HepG2 cells) | SI for HEK293T cells (text, all strains and isolates) (HEK293T cells) | SI for HepG2 cells (text, all strains and isolates) (HepG2 cells) |
| --- | --- | --- | --- | --- | --- | --- | --- | --- | --- | --- |
| CCN(CC)c1ccc2c(c1)Oc1cc(N(CC)CC)ccc1N2C(C)=O [ITT-001, 1-(3,7-Bis(diethylamino)-10H-phenoxazin-10-yl)ethanone] | 28.6 | 9.2 | 8.2 | 28.8 | 90.1 | 12.6 |  |  |  |  |
| CCN(CC)c1ccc2c(c1)Oc1cc(N(CC)CC)ccc1N2C(=O)C(C)(C)C [ITT-002, 1-(3,7-Bis(diethylamino)-10H-phenoxazin-10-yl)-2,2-dimethylpropan-1-one] | 18.7 | 9.7 | 8.2 | 19.2 | > 2415.5 | > 2049.2 | > 4672.9 | > 4807.7 |  |  |
| CCN(CC)c1ccc2c(c1)Oc1cc(N(CC)CC)ccc1N2C(=O)C1CC1 [ITT-003] | 938.8 | 369.5 | 293.9 | 958.3 | > 2008.0 | > 1597.4 | > 5102.0 | > 5208.3 | > 290 | > 1500 |
| CCN(CC)c1ccc2c(c1)Oc1cc(N(CC)CC)ccc1N2C(=O)c1ccccc1 [ITT-004, (3,7-Bis(diethylamino)-10H-phenoxazin-10-yl)(phenyl)methanone] | 929.2 | 397.7 | 344.3 | 853.7 | > 1893.9 | > 1639.3 | > 4424.8 | > 4065.0 | > 290 | > 1500 |
| CCN(CC)CC(=O)N1c2ccc(N(CC)CC)cc2Oc2cc(N(CC)CC)ccc21.Cl [ITT-005, 1-(3,7-Bis(diethylamino)-10H-phenoxazin-10-yl)-2-(diethylamino)ethanone hydrochloride] | 5.3 | 5.6 | 4.0 | 5.0 | 35.3 | 25.0 | 33.2 | 31.6 |  |  |
| CCN(CC)c1ccc2c(c1)Oc1cc(N(CC)CC)ccc1N2C(=O)c1ccc(F)cc1 [ITT-006, (3,7-Bis(diethylamino)-10H-phenoxazin-10-yl)(4-fluorophenyl)methanone] | 1283.0 | 494.5 | 462.6 | 850.0 | > 1818.2 | > 1700.7 |  | > 3125.0 | > 290 | > 1500 |
| CCN(CC)c1ccc2nc3ccc(=[N+](CC)CC)cc-3oc2c1 [basic blue 3] | 6.6 | 4.0 | 3.6 | 4.4 | 192.3 | 169.5 | 312.5 | 208.3 |  |  |
